We go through one molecule from article PMC6232094.

No constants are given. Whether binding was seen depends on the method and setting.

In assay [1] the target is human ΔIPMK (inositol polyphosphate multikinase lacking the disordered N-terminus and the kinase-domain internal loop) (human) (UniProt Q8NFU5). As to the kind of experiment: SEC; size exclusion chromatography of purified ΔIPMK; conditions of this observation not told; both purified. For orientation: In gel filtration, larger molecules generally elute earlier.
The target is the same in assay [2]. The assay is described as follows: crystal structure; 2.5 Å, space group P2(1)2(1)2, two ΔIPMK monomers in the asymmetric unit; crystals from 0.1 M sodium citrate pH 3.5, 0.8 M (NH4)2SO4; both purified.

B1: human ΔIPMK (inositol polyphosphate multikinase lacking the disordered N-terminus and the kinase-domain internal loop) (enzyme, UniProt Q8NFU5 70-279; Q8NFU5 373-416)
chain: DGTVLKQLQPPPRGPRELEFYNMVYAADCFDGVLLELRKYLPKYYGIWSPPTAPNDLYLKLEDVTHKFNKPCIMDVKIGQKSYDPFASSEKIQQQVSKYPLMEEIGFLVLGMRVYHVHSDSYETENQHYGRSLTKETIKDGVSRFFHNGYCLRKDAVAASIQKIEKILQWFENQKQLNFYASSLLFVYEGSSQPTTTKLNDRTLAEKFLSGGGGSGGGGSCQEIAEVEVRMIDFAHVFPSNTIDEGYVYGLKHLISVLRSILDN
On to B1, for which the binding result in assay [1] and in assay [2] was “no binding” throughout.
